Assay results: patent US5232917A, “Methods, compositions, and compounds for allosteric modulation of the GABA receptor by members of the androstane and pregnane series” (priority 1991, dated 1993)

Test system: GABA receptor-chloride ionophore complex (GR complex)
Experiment: Dissociation kinetics of [35S]TBPS in rat cerebral cortical membranes
Format: binding
Details: alphaxalone 300 nM, 3α-OH-DHP 20 nM
[1] = Na pentobarbital 30 μM, 2 nM [35S]TBPS

For `CC(=O)[C@H]1CC[C@H]2[C@@H]3CC[C@H]4C[C@H](O)CC[C@]4(C)[C@H]3C(=O)C[C@]12C` [alphaxalone, 5α-PREGNAN-3α-OL-11,20-DIONE], the “Total percentage of specific sites, rapid (R)” value (Na pentobarbital 30 μM) was 34 ± 5%, the “Total percentage of specific sites, slow (S)” value (Na pentobarbital 30 μM) was 73 ± 4% and the “K-1, rapidly dissociating component (R)” value [1] was 0.180 ± 0.040 min⁻¹. For the same compound, the “K-1, slowly dissociating component (S)” value [1] was 0.0120 ± 0.003 min⁻¹, the “T1/2, rapidly dissociating component (R)” value [1] was 4.9 ± 1 min and the “T1/2, slowly dissociating component (S)” value [1] was 67 ± 12 min. The “biphasic dissociation mechanism of [35S]TBPS” value (pentobarbital 30 μM, FIGS. 2A, 2B) was “absent”.
